Data taken from the supplement of paper PMC11098740.
This is one part of the list. Repeats are few or missing, and single values can be far off.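 Test system: a mixed pool of 41 HAP1 clones in which 61 cancer-associated proteins carry fluorescent tags inserted into introns, and each clone is identified from its image pattern. Read-outs are compared with DMSO-treated control wells. The BRD4 degrader dBET6 served as the positive control.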

Molecular target: BRD4 (intron 10 mScarlet tag, HAP1) (UniProt O60885)
Test: BRD4 median nuclear fluorescence intensity change vs DMSO (log2 fold change); higher = more BRD4 protein
Conditions: 6 h

**Q.** For NC(=O)N[C@@H](CCC(=O)O)C(=O)O [carglumic acid] (10 µM), which “BRD4 median nuclear fluorescence intensity change (log2)” value is on record?
**A.** -0.000272

**Q.** With Cc1[nH]c2ccccc2c1CCNCc1ccc(/C=C/C(=O)NO)cc1 [panobinostat] (20 µM) as the compound, how does the “BRD4 median nuclear fluorescence intensity change (log2)” value read?
**A.** 0.00289

**Q.** How did the “BRD4 median nuclear fluorescence intensity change (log2)” value turn out when NC(=O)c1ncn([C@@H]2O[C@H](COP(=O)(O)OP(=O)(O)OP(=O)(O)O)[C@@H](O)[C@H]2O)n1 [ribavirin 5'-triphosphate] (10 µM) was run?
**A.** -0.0568

**Q.** For COc1cc(C(=O)O)ccc1NC(=O)[C@@H]1N[C@@H](CC(C)(C)C)[C@](C#N)(c2ccc(Cl)cc2F)[C@H]1c1cccc(Cl)c1F [idasanutlin] (20 µM), which “BRD4 median nuclear fluorescence intensity change (log2)” value is on record?
**A.** 0.05

**Q.** With C[C@]1(c2nc3c(C(N)=O)cccc3[nH]2)CCCN1 [veliparib] (10 µM) as the compound, how does the “BRD4 median nuclear fluorescence intensity change (log2)” value read?
**A.** 0.0433

**Q.** For CC(=O)OC[C@H]1O[C@@H]([S-])[C@H](OC(C)=O)[C@@H](OC(C)=O)[C@@H]1OC(C)=O.CCP(CC)CC.[Au+] [auranofin] (10 µM), which “BRD4 median nuclear fluorescence intensity change (log2)” value is on record?
**A.** 0.0501

**Q.** For N=C(N)NC(=O)Cc1c(Cl)cccc1Cl [guanfacine] (10 µM), which “BRD4 median nuclear fluorescence intensity change (log2)” value is on record?
**A.** -0.0644

**Q.** For COCCCOc1cc(C[C@@H](C[C@H](N)[C@@H](O)C[C@H](C(=O)NCC(C)(C)C(N)=O)C(C)C)C(C)C)ccc1OC [aliskiren] (10.0003 µM), which “BRD4 median nuclear fluorescence intensity change (log2)” value is on record?
**A.** 0.0662

**Q.** For CC(=O)O[C@@]12CO[C@@H]1C[C@H](O)[C@@]1(C)C(=O)[C@H](O)C3=C(C)[C@@H](OC(=O)[C@H](O)[C@@H](NC(=O)OC(C)(C)C)c4ccccc4)C[C@@](O)([C@@H](OC(=O)c4ccccc4)[C@H]21)C3(C)C [docetaxel] (0.00463667 µM), which “BRD4 median nuclear fluorescence intensity change (log2)” value is on record?
**A.** 0.0104

**Q.** Which “BRD4 median nuclear fluorescence intensity change (log2)” value does the source give for CNC(=O)c1ccc(N2C(=S)N(c3ccc(C#N)c(C(F)(F)F)c3)C(=O)C2(C)C)cc1F [enzalutamide] (20 µM) here?
**A.** -0.0293

**Q.** How did the “BRD4 median nuclear fluorescence intensity change (log2)” value turn out when CC(C)NCC(O)c1ccc(O)c(O)c1 (stereo not given) [isoproterenol] (10 µM) was run?
**A.** 0.0737

**Q.** With CC1OC2(CS1)CN1CCC2CC1 (stereo not given) [cevimeline] (11.8284 µM) as the compound, how does the “BRD4 median nuclear fluorescence intensity change (log2)” value read?
**A.** -0.0173

**Q.** How did the “BRD4 median nuclear fluorescence intensity change (log2)” value turn out when NC(=O)c1cnccn1 [pyrazinamide] (10 µM) was run?
**A.** 0.101

**Q.** How did the “BRD4 median nuclear fluorescence intensity change (log2)” value turn out when COc1cc([C@@H]2c3cc4c(cc3[C@@H](O[C@@H]3O[C@@H]5CO[C@@H](C)O[C@H]5[C@H](O)[C@H]3O)[C@H]3COC(=O)[C@H]23)OCO4)cc(OC)c1O [etoposide] (20 µM) was run?
**A.** 0.137

**Q.** Which “BRD4 median nuclear fluorescence intensity change (log2)” value does the source give for Nc1cccc2c1CN(C1CCC(=O)NC1=O)C2=O (stereo not given) [lenalidomide] (4.1665 µM) here?
**A.** -0.0944
